Results deposited as PubChem BioAssay AID1259290 (Sanger Institute, 2017)
Shown is a random part of 794 reagents tested. 9 of them (1.1%) were called active. 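Calls rest on knock-down alone, not drug synergy; synergy above 0.15 was grouped apart and does not affect calls.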 The numbers tell different reagents against one gene apart. Further read-outs or replicates are left out here. Not given: the amount of reagent, the time to read-out.

- Assay: 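siRNA screen across the kinome seeking synthetic lethal partners for BYL719, cetuximab or trametinib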 (primary screen)
- System: human SNUC1 colorectal cancer cells
- Knock-down reagent: siRNA pool against human genes
- Conditions: anchor drugs BYL719 1 µM, cetuximab 5 µg/ml or trametinib 10 nM, or DMSO vehicle alone
- Read-out: 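Viability averaged over replicates and scaled to non-targeting siRNA, robust z-score with no drug, and synergy scores by drug for BYL719, cetuximab and trametinib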
- Reading the numbers: viability z-score, siRNA alone: higher = more viable cells; low values mean essential gene
- Rule for the call: 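Essential when the robust viability z-score with siRNA alone falls below -3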
- Calls: active = essential: knock-down alone cut viability (z below -3); inactive = no clear viability loss with knock-down alone

viability z-score, siRNA alone, by target and reagent
HIPK3: #1 -0.0103 inactive
LMTK3: #1 0.0885 inactive
MYH10: #1 -0.121 inactive
ILK: #1 0.407 inactive; #2 0.936 inactive
MARK2: #1 -0.481 inactive
PTGS1: #1 0.936 inactive
MAPK13: #1 0.936 inactive
OXSR1: #1 -0.413 inactive
MAP3K2: #1 0.867 inactive
ITPKB: #1 -0.373 inactive
NME3: #1 -1.91 inactive
IP6K1: #1 0.936 inactive
FLT1: #1 0.612 inactive
CEP290: #1 -0.404 inactive
MAP3K9: #1 0.0659 inactive
BRAF: #1 0.936 inactive
PIK3C2G: #1 -0.771 inactive
PSKH1: #1 0.936 inactive
PFKM: #1 0.936 inactive
CDK5R1: #1 -0.0843 inactive
CAMK1: #1 0.936 inactive
PRKAR1A: #1 0.318 inactive
LMTK1: #1 -0.965 inactive
STK16: #1 0.68 inactive
PLK1: #1 -5.6 active
NR2F2: #1 -0.646 inactive
STK36: #1 -1.24 inactive
MAGI2: #1 -1.64 inactive
CDC73: #1 0.936 inactive
PDPK1: #1 0.767 inactive
TBX3: #1 -1.56 inactive
WNK3: #1 -1.16 inactive
NUP98: #1 -2.72 inactive
CDKL2: #1 -1.13 inactive
CAMKK2: #1 0.936 inactive
KCNH2: #1 -0.0431 inactive
CHD9: #1 -1.69 inactive
PIKFYVE: #1 0.719 inactive
RIPK1: #1 -0.794 inactive
XYLB: #1 0.667 inactive
MAP3K5: #1 0.251 inactive
MOK: #1 -1.47 inactive
NEK4: #1 -1.13 inactive
ACVR1: #1 -1.77 inactive
RPS6KA1: #1 -1 inactive
NEK8: #1 0.44 inactive
CDK6: #1 0.444 inactive
PIK3C2A: #1 -1.71 inactive
MAP2K2: #1 0.936 inactive
